Percent effect of library compounds

Data taken from ChEMBL document CHEMBL3988442, “University of Dundee, Small-Polar-MMV Screening Library” (2021).

Mtb glucose medium: 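Whole-cell growth test on Mycobacterium tuberculosis, read after 3 days in glucose-containing 7H9 medium; the read-out is not stated. Tested at 50 µM. Higher reads as more growth inhibition (inferred: compounds with an IC50 in retests scored well above the rest). Of about 69,000 compounds tested this way, about 760 (1.1%) reached 50% or more in at least one test.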
Mtb cholesterol medium: 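Growth of Mycobacterium tuberculosis over 4 days (cholesterol / DPPC medium with tyloxapol); the read-out is not stated. Tested at 50 µM. Direction is inferred from retests: higher values go with more growth inhibition. About 69,000 compounds were tested under these conditions; 0.54% (about 370) showed 50% or more at least once.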

Each number is a percent effect as filed. The controls that fix the scale are not given in the record; negative values are as filed. The compounds are a random part of those screened. Two or more numbers in one place are separate tests of the same structure; such repeats can differ widely.

{"structure": "CCC(C(=O)NCc1ccncc1)N(c1ccc(F)cc1)S(C)(=O)=O", "stereo": "configuration not stated", "Mtb glucose medium": 7.408, "Mtb cholesterol medium": "0.06424 and -13.03"}
{"structure": "Cc1nc(-c2cccc(N3CCC(N[C@@H]4CCOC4)CC3)c2)cs1", "Mtb glucose medium": 24.84, "Mtb cholesterol medium": 1.302}
{"structure": "[H][C@@]12CCN(C[C@@H]1CC)[C@@H](CNCc1cccc(C#N)c1)C2", "Mtb glucose medium": "-22.78 and -73.29", "Mtb cholesterol medium": -28.53}
{"structure": "Cc1ccc(CN(C)C(=O)NCC(C)(C)S(C)(=O)=O)s1", "Mtb glucose medium": -10.19, "Mtb cholesterol medium": -2.112}
{"structure": "CCc1nc(CNC(=O)C2CCC(=O)N(Cc3ccccc3F)C2)no1", "stereo": "configuration not stated", "Mtb glucose medium": "1.447 and -1.166", "Mtb cholesterol medium": 12.04}
{"structure": "CCOC(=O)CCC(=O)NC(C)c1ccc(NC(=O)CC)cc1", "stereo": "configuration not stated", "Mtb glucose medium": "13.2 and -0.8842", "Mtb cholesterol medium": -29.22}
{"structure": "Cc1cccn2c(CNC(C)CCc3ccc(O)cc3)cnc12", "stereo": "configuration not stated", "Mtb glucose medium": 21.11, "Mtb cholesterol medium": 4.226}
{"structure": "Cc1ccc(N2CCCC(N(C)Cc3c(C)noc3C)C2)nn1", "stereo": "configuration not stated", "Mtb glucose medium": 19.79, "Mtb cholesterol medium": 19.3}
{"structure": "O=C(O)C(F)(F)F.O=C(O)C(F)(F)F.[H][C@@]12COC[C@H](C(=O)NCc3ccccn3)[C@]1([H])CN(Cc1ccoc1)C2", "Mtb glucose medium": -2.598, "Mtb cholesterol medium": -6.513}
{"structure": "COc1nc2c(cc1C(=O)N1CCCCC1c1ccccn1)CCC2", "stereo": "configuration not stated", "Mtb glucose medium": 9.036, "Mtb cholesterol medium": 2.237}
{"structure": "[H][C@@]12CCN(C(=O)c3ccnnc3)C[C@@]1([H])O[C@H](c1nc(C)cs1)C2", "Mtb glucose medium": 27.63, "Mtb cholesterol medium": 12.39}
{"structure": "Cn1c(=O)[nH]c2cc(C(=O)OCC(F)F)ccc21", "Mtb glucose medium": -15.68, "Mtb cholesterol medium": -12.49}
{"structure": "CC(C)c1nccn1C1CCCN(C(=O)c2ccsc2)C1", "stereo": "configuration not stated", "Mtb glucose medium": -8.077, "Mtb cholesterol medium": 11.82}
{"structure": "CC(C)CCN1CC2(CCCN(C(=O)CNC(=O)N(C)C)C2)CCC1=O", "stereo": "configuration not stated", "Mtb glucose medium": "-13.17 and -2.674", "Mtb cholesterol medium": 12.84}
{"structure": "CCC(C(=O)N1CCCSCC1)N1CCCC1=O", "stereo": "configuration not stated", "Mtb glucose medium": -30.7, "Mtb cholesterol medium": -16.25}
{"structure": "NC(=O)CN1CCC(C(=O)NCCn2cc(Cl)cn2)CC1", "Mtb glucose medium": 0.204, "Mtb cholesterol medium": -0.6118}
{"structure": "Cc1nc(C)n(CCCn2ccnc2-c2cc3n(n2)CCCNC3)n1", "Mtb glucose medium": "-9.307 and -0.3911", "Mtb cholesterol medium": -5.515}
{"structure": "[H][C@]12CCN(C(=O)C(C)C)CC[C@@]1([H])S(=O)(=O)N(Cc1ccncc1)C2", "Mtb glucose medium": "0.09075 and 11.72", "Mtb cholesterol medium": 2.761}
{"structure": "Cc1cc(C(=O)N2CCC3(CCNCC3)CC2)c2cccc(C)c2n1", "Mtb glucose medium": 3.864, "Mtb cholesterol medium": -1.051}
{"structure": "Cn1c(N2CCOCC2)nc2cc(C(=O)NCC(F)(F)F)ccc21", "Mtb glucose medium": 12.8, "Mtb cholesterol medium": -4.228}
{"structure": "COCCN1CCCC(c2nccnc2Nc2nc(C)cs2)C1", "stereo": "configuration not stated", "Mtb glucose medium": -6.946, "Mtb cholesterol medium": -11.03}
{"structure": "O=C(O)c1ccnc(SCC(=O)c2ccccc2)c1", "Mtb glucose medium": "1.575 and -5.604", "Mtb cholesterol medium": -20.5}
{"structure": "CCC(CO)N(Cc1ccsc1)Cc1c(C)nn(C)c1Cl", "stereo": "configuration not stated", "Mtb glucose medium": 21.8, "Mtb cholesterol medium": "-5.673 and 9.757"}
{"structure": "CCN(c1ccc(C(=O)NCc2ccnc(C)n2)cc1)C(C)C", "Mtb glucose medium": 13.57, "Mtb cholesterol medium": -16.98}
{"structure": "Cc1ccc(C(=O)N2CCC3(CCC(=O)N(CC(C)O)C3)CC2)c(O)c1", "stereo": "configuration not stated", "Mtb glucose medium": -9.568, "Mtb cholesterol medium": -11.22}
{"structure": "CCCOc1cc(C)ccc1NC(=O)N(C)C", "Mtb glucose medium": 32.29, "Mtb cholesterol medium": 0.4143}
{"structure": "CCC1CN(C(=O)c2cnc(-c3ccccc3)s2)CCO1", "stereo": "configuration not stated", "Mtb glucose medium": 21.9, "Mtb cholesterol medium": 42.32}
{"structure": "Clc1ccccc1C1CN(CCc2ccncc2)CCO1", "stereo": "configuration not stated", "Mtb glucose medium": 2.767, "Mtb cholesterol medium": -10.55}
{"structure": "Nc1nccc(N2CCCC(CO)(CCOc3ccccc3)C2)n1", "stereo": "configuration not stated", "Mtb glucose medium": 21.36, "Mtb cholesterol medium": 7.614}
{"structure": "CN(Cc1cccc(F)c1)C(=O)CN1CCCC1CCc1ccccc1", "stereo": "configuration not stated", "Mtb glucose medium": 30.28, "Mtb cholesterol medium": -8.468}
{"structure": "COCc1cc(NCc2cccnc2Oc2ccc(C)nc2)ncn1", "Mtb glucose medium": 36.51, "Mtb cholesterol medium": 5.621}
{"structure": "Cc1cccc(C)c1OC1CN(C(=O)C2CCCN(C(=O)N(C)C)C2)C1", "stereo": "configuration not stated", "Mtb glucose medium": -13.37, "Mtb cholesterol medium": -12.62}
{"structure": "COc1ccc(-n2cnnc2SCC(C)(C)O)cn1", "Mtb glucose medium": -3.197, "Mtb cholesterol medium": 8.769}

For reference, 2 entries once more:

- CCN(c1ccc(C(=O)NCc2ccnc(C)n2)cc1)C(C)C : Mtb glucose medium: 13.57%; Mtb cholesterol medium: -16.98%
- [H][C@]12CCN(C(=O)C(C)C)CC[C@@]1([H])S(=O)(=O)N(Cc1ccncc1)C2 : Mtb glucose medium: 0.09075% and 11.72%; Mtb cholesterol medium: 2.761%